Experimental findings from PubChem BioAssay AID1347423 (Functional Genomics Laboratory (NCATS/FGL), 2020) are described below.

Among all 52,000 sequences or so, about 210 (0.4%) were called active.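 How the source made its calls: active means gene whose silencing raises cell survival under the drug, median off-target-corrected z-score across its silencing RNAs 2 or more; inactive means the rest.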 The list shows a part of the results.

The experiment can be described thus: Resistance to Poly (ADP-Ribose) Polymerase inhibitor: Gene Identification via Genome-wide siRNA Screen. The note with it: mouse BRCA2 R2336H ES cells, olaparib, CellTiter-Glo viability; hits give high values. Summed up:
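Genome-wide siRNA screen (3 siRNAs/gene, 20 nM) in mouse ES cells carrying hypomorphic BRCA2 R2336H; olaparib 500 nM added 48 h post-transfection, CellTiter-Glo viability 72 h later. Normalized to plate-median negative control; MAD z-scores, gene median, seed-adjusted.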
As for GGUACAUUUUAUACUGGAGTT against Zfp277, the z-score was inactive: 0.624.

As to GGGACACGAACUCUCCAAUTT against Ywhab, the z-score was inactive: 0.0859.

For CCUGAUACCCAAAGACUCATT against Dnaic1, the z-score is inactive: -0.0677.

As for CGAGAGUUCUGUGACCAUGTT against Olfr1165, the z-score was inactive: 1.67.

With GGCAAACGAUAAAGAAAUCTT against Ptp4a2, the z-score is inactive: 0.55.

For GCCCUUUUCAGGGAAAACUTT against Myh8, the z-score was inactive: -0.561.

In the case of GGGUUUGUCAUCACUGUCUTT against Bdkrb1, the z-score was inactive: -0.695.

Regarding GCCCAUUCAAACUAUCUAUTT against Ttk, the z-score was inactive: -0.25.

As for GCUUUUAGGCCAUUAUCAGTT against Ddx46, the z-score is inactive: -0.823.

Take GGACACUGGGCGAAUAGUGTT against Cdkl3: the z-score is inactive: -0.898.

As to GCGUACGUGGACUUAACUCTT against Gtf2a2, the z-score was inactive: 0.637.

On to GGACAGAUGAACUUCAAUGTT against C1galt1, for which the z-score is inactive: -0.811.

Regarding GGAUGAUGAAAUUGGAGAUTT against Cct5, the z-score is inactive: -2.51.

In the case of GGUCUCAAAGAAGAGGAGUTT against BC022645, the z-score was inactive: -0.774.

For GCAAAUGCGACUUUACACATT against Top1, the z-score was inactive: 1.02.

Turning to “CACCCUUCUCUGAUUGUCUTT against 2310007F04Rik”, the z-score is inactive: 0.111.

As for GGACGUGGAAAACCACAGUTT against Nphp4, the z-score was inactive: 0.436.

Consider GGCACUUCAGAGCAAAUUGTT against Slc16a4, for which the z-score is inactive: -0.257.

Regarding CCACCUACGUCAACACUAATT against Kcnh6, the z-score is inactive: 2.22.

Regarding GCCGGUGGAAUAUGCUCCATT against AI649392, the z-score is inactive: -2.71.

GGACCUGUGUGUUCUUUGATT against Amhr2: the z-score is inactive: 0.723.

As to GGAGCUUGUUCGAGAUCCATT against Insl5, the z-score was inactive: -0.654.

GGAGAAAGUCCUUUUUGUUTT against Sh3gl2: the z-score was inactive: 1.2.

In the case of GGGCAUUUACGUCACACGATT against Tax1bp3, the z-score was inactive: 1.04.

Take UCCAAGCUGUUGUUUAUACTT against Acsl1: the z-score is inactive: -0.237.

On to GGAUGAGUACACUGAAAGCTT against Nvl, for which the z-score was inactive: -0.000258.

In the case of CCCAAUAAAGCUUGUGUAATT against Nudt14, the z-score was inactive: -0.606.

GGAUCAACUGGUGACACAGTT against Preb: the z-score is inactive: -0.0488.

For the sequence “CCUCCUGUUAAUCAAACUGTT against 1700020H15”, the z-score was inactive: 0.627.

For GGAACCACAUUAUGGAUCUTT against Rbx1, the z-score was inactive: -1.04.

As for GGCAGUGUUUUUAUUUGAUTT against Pold3, the z-score was inactive: -0.316.

On to GCAAAGCCUUACCAUGUAATT against AU044919, for which the z-score was inactive: -1.93.

In the case of CCACCAGGGAUCGUUAUAATT against Phyh, the z-score was inactive: -0.753.

Turning to CGAAACUGACCUCUACACUTT against Cnnm1, the z-score is inactive: -1.3.

GCAUUGGACUCAUAAUUUUTT against Aadat: the z-score is inactive: -0.161.

For CCCAAUCACUUAUUGAAACTT against Cspg2, the z-score is inactive: 0.922.

As to GGGUUUUGAAAGAGGAAAATT against Osbpl8, the z-score was inactive: 0.567.

Regarding CCGUGGAGACAGAUCUAGATT against Hif3a, the z-score is inactive: 0.149.

As to GGACGAGAAUCAAGAGCAGTT against Cdkn1c, the z-score is inactive: 2.16.

In the case of UCCAUCGACUGGGACUCUCTT against LOC381680, the z-score was inactive: -0.216.

As for CCAGAUCUACGAAAGUUUATT against Snx19, the z-score was inactive: -0.0525.

Consider “CGGAAAAUUUGUUCCUGACTT against C430048L16Rik”, for which the z-score is inactive: 0.488.

GCCUGAUUGUGACGUGGUUTT against Slc19a2: the z-score was inactive: -1.13.

On to GGUUAGUCUGACCUGCCUGTT against AI324046, for which the z-score is inactive: -1.42.

For the sequence GGUGCGCUGUGUUGUUCAUTT against Bmper, the z-score is inactive: -1.59.

As for “GCUACUCCAAUAAACGACATT against 2010001H14Rik”, the z-score was inactive: 0.172.

Regarding “GGCAUCCAUAAAGAACAGATT against 4432417N03Rik”, the z-score is inactive: 1.42.

Regarding GUAUGAUGCACUCCAGUUGTT against Hdac8, the z-score was inactive: -1.38.

On to UUUCCGUUUUAGGAUGUGATT against Olfr319, for which the z-score was inactive: 0.502.

In the case of “GGAACAUCACCCUUGCCAATT against 4933425F03Rik”, the z-score was inactive: -0.186.

As for CGGACUGGACAUUGAUGAATT against Slc13a1, the z-score was inactive: -0.188.

“GGUUUUAUAUUGCUUCUCCTT against 9230109A22Rik”: the z-score was inactive: 0.782.

On to GGUAGAAAAAGUAAUUUCCTT against Tmprss2, for which the z-score is inactive: 1.14.

Take “CCAUACACAGUAUAAUCAATT against A830023L05”: the z-score was inactive: 0.23.

For the sequence “CCAACACAUGUGGAGAGUUTT against 5830468K18Rik”, the z-score was inactive: -0.313.

“CGCCCAAAUUGACUAUUUGTT against B230312A22Rik”: the z-score is inactive: -0.592.

In the case of GGAAUAUUCUGGUCCAGAGTT against Cdh24, the z-score is inactive: 0.0259.

Take “CCUACUUAAGGUCUAGUUUTT against C630007B19Rik”: the z-score is inactive: 0.685.

For GGUAUCCAUGUCAUGCUCUTT against Cyp4a12, the z-score is inactive: 0.116.

Consider CGUCAAUGAAUUCGACUCUTT against Pnlip, for which the z-score was inactive: -0.114.

Consider CCCAAUUAGAAUAAAGCUUTT against Asb11, for which the z-score is inactive: 0.295.

As for GGUCAUCGAGUUGCUUUUUTT against Gga3, the z-score was inactive: -1.

Turning to GGUGGAGAGCUACAAUAUUTT against Pcdhga11, the z-score was inactive: -3.26.

Regarding GGUGGACUUCGAGAACAUATT against Cyp2d26, the z-score is inactive: -1.55.

For the sequence CCAUGGUCACCUAUGUCCUTT against Tas2r129, the z-score is inactive: -0.505.

In the case of GCCCUCAACCAUAAUUCAATT against Zipro1, the z-score was inactive: 0.8.
